Measurements published in US20230285527A1.
No constants are given. Whether binding was seen depends on the method and setting. Some binding calls cover weakened binding; strength is not graded here.

Amino acid sequences for entries named in this document (tags omitted). Residues count along the entry.
UniProt O00481, residues 30-513: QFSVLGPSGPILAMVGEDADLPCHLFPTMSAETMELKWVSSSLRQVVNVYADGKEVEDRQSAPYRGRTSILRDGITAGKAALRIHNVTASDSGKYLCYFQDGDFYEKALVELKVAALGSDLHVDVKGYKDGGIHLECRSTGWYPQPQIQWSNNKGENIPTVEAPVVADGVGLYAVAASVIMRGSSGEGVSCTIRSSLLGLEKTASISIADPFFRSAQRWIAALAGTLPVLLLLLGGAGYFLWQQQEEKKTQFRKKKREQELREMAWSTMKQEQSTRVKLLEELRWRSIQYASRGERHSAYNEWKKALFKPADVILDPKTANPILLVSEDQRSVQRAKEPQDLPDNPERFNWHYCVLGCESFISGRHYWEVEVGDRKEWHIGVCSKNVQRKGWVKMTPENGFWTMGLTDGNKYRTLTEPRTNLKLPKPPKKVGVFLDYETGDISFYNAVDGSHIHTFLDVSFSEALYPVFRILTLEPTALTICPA
UniProt P78410, residues 30-334: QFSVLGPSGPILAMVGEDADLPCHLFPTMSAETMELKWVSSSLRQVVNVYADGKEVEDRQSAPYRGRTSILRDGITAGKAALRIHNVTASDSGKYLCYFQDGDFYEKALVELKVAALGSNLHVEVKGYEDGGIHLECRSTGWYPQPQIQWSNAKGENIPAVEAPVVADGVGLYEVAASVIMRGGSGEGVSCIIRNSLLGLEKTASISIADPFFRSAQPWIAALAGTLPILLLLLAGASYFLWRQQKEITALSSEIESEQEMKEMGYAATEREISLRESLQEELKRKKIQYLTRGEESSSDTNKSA

Key:
[1] = target: CD277 (BT3 / BTN3A, butyrophilin 3), human, on cells (human) (UniProt O00481); assay: flow cytometry on human NK cells
[2] = target: BTN3A2 (BT3.2), human (human) (UniProt P78410); assay: western blot of total protein extracts with anti-BTN3A 20.1
[3] = target: CD277 (BT3 / BTN3A, butyrophilin 3), human, on cells (human) (UniProt O00481); assay: flow cytometry on primary AML blasts
[4] = target: CD277 (BT3 / BTN3A, butyrophilin 3), human, on cells (human) (UniProt O00481); assay: flow cytometry on human monocytes and iDC
[5] = target: CD277 (BT3 / BTN3A, butyrophilin 3), human, on cells (human) (UniProt O00481); assay: immunohistochemistry on frozen sections of reactive lymph nodes
[6] = target: CD277 (BT3 / BTN3A, butyrophilin 3), human, on cells (human) (UniProt O00481); assay: flow cytometry on human PBMC, Alexa647 anti-CD277 clone 20.1

Measured: binding

B1: mAb 20.1 (murine anti-CD277 antibody, hybridoma CNCM I-4402) (antibody, V domains shown)
VH: QVQLQQSGAELVKPGASVKLSCKASGYTFTRYYLYWVKQRPGQGLEWIGEINPNNGGTKFNEKFKSKATLTVDKSSRTTYIQLSSLTSEDSAVYYCSREDDYDGTPDAMDYWGQGTAVTVSS
VL: DIQMNQSPSSLSASLGDTITITCHASQNINLWLSWYQQRPGNIPKLLIYRASNLHTGVPSRFSGSGSATGFTLTISSLQPEDIATYYCQQGHSYPYTFGGGTKLDIK
binds: [1] | [2] | [3] | [4] | [5] | [6]
